PubChem BioAssay AID652272 | Drosophila RNAi Screening Center | 2013
Assay: 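Genes whose knock-down decreases or increases Hedgehog reporter output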 (primary screen). Cells: Drosophila clone 8 (Cl8) cells. Knock-down reagent: long dsRNA against Drosophila genes. Measurement: 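Plate reader light from a firefly reporter under a ptc promoter fragment that responds to Hedgehog, with Renilla light as transfection reference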. Scale: firefly Hh reporter signal: higher = more ptc reporter light; Renilla reference signal: higher = more Renilla control light. Active means: 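Called a hit if the two-replicate mean z-score lies below -2 or above +3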. Meaning of the calls: active = hit: reporter lowered or raised; inactive = not a hit.
In all, the deposit lists about 21,000 reagents; below is an unselected part of those with a known target gene and a result. In the full data, 503 (2.4%) were called active. 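Raw plate light values, not normalised; calls rest on replicate z-scores that were not deposited; hits include reporter decreases as well as increases.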 Reagent sequences are not shown. Not stated in the record: the amount of reagent, the time to read-out.

Eig71Ek [DRSC11158]
- firefly Hh reporter signal, replicate 1: 1.27e5
- Renilla reference signal, replicate 1: 7168
- Renilla reference signal, replicate 2: 3672
- Outcome: inactive

CG7131 [DRSC16203]
- firefly Hh reporter signal, replicate 1: 1.16e5
- firefly Hh reporter signal, replicate 2: 1.33e5
- Renilla reference signal, replicate 1: 4096
- Renilla reference signal, replicate 2: 5703
- Outcome: inactive

CG13640 [DRSC14639]
- firefly Hh reporter signal, replicate 1: 4.66e5
- firefly Hh reporter signal, replicate 2: 86226
- Renilla reference signal, replicate 1: 23797
- Renilla reference signal, replicate 2: 2880
- Outcome: inactive

lmd [DRSC15618]
- firefly Hh reporter signal, replicate 1: 1.06e5
- firefly Hh reporter signal, replicate 2: 62112
- Renilla reference signal, replicate 1: 4458
- Renilla reference signal, replicate 2: 2893
- Outcome: inactive

Gr68a [DRSC10803]
- firefly Hh reporter signal, replicate 1: 70732
- firefly Hh reporter signal, replicate 2: 58913
- firefly Hh reporter signal, replicate 3: 64717
- Renilla reference signal, replicate 1: 4577
- Renilla reference signal, replicate 2: 4600
- Outcome: inactive

CG14301 [DRSC14780]
- firefly Hh reporter signal, replicate 1: 5.57e5
- firefly Hh reporter signal, replicate 2: 1.39e5
- Renilla reference signal, replicate 1: 29821
- Renilla reference signal, replicate 2: 4073
- Outcome: inactive

msb1l [DRSC03572]
- firefly Hh reporter signal, replicate 1: 78822
- firefly Hh reporter signal, replicate 2: 74512
- Renilla reference signal, replicate 1: 3450
- Renilla reference signal, replicate 2: 3016
- Outcome: inactive

CG14221 [DRSC19578]
- firefly Hh reporter signal, replicate 1: 73904
- firefly Hh reporter signal, replicate 2: 1.95e5
- Renilla reference signal, replicate 1: 1684
- Renilla reference signal, replicate 2: 8018
- Outcome: inactive

CG10959 [DRSC17769]
- firefly Hh reporter signal, replicate 1: 88603
- firefly Hh reporter signal, replicate 2: 1.05e5
- Renilla reference signal, replicate 1: 2250
- Renilla reference signal, replicate 2: 2900
- Outcome: inactive

CG16959 [DRSC10230]
- firefly Hh reporter signal, replicate 1: 96218
- firefly Hh reporter signal, replicate 2: 45099
- Renilla reference signal, replicate 1: 3645
- Renilla reference signal, replicate 2: 1931
- Outcome: inactive

CG14135 [DRSC10140]
- firefly Hh reporter signal, replicate 1: 44796
- firefly Hh reporter signal, replicate 2: 73056
- firefly Hh reporter signal, replicate 3: 59392
- Renilla reference signal, replicate 1: 8368
- Renilla reference signal, replicate 2: 4763
- Outcome: inactive

Continued; the last 2 above are carried over.
CG16959 [DRSC10230]
- firefly Hh reporter signal, replicate 1: 96218
- firefly Hh reporter signal, replicate 2: 45099
- Renilla reference signal, replicate 1: 3645
- Renilla reference signal, replicate 2: 1931
- Outcome: inactive

CG14135 [DRSC10140]
- firefly Hh reporter signal, replicate 1: 44796
- firefly Hh reporter signal, replicate 2: 73056
- firefly Hh reporter signal, replicate 3: 59392
- Renilla reference signal, replicate 1: 8368
- Renilla reference signal, replicate 2: 4763
- Outcome: inactive

sta [DRSC18838]
- firefly Hh reporter signal, replicate 1: 28089
- firefly Hh reporter signal, replicate 2: 1.12e5
- Renilla reference signal, replicate 1: 2229
- Renilla reference signal, replicate 2: 7689
- Outcome: active

Atg101 [DRSC20020]
- firefly Hh reporter signal, replicate 1: 44112
- firefly Hh reporter signal, replicate 2: 2.34e5
- Renilla reference signal, replicate 1: 1208
- Renilla reference signal, replicate 2: 9616
- Outcome: inactive

CG16974 [DRSC02551]
- firefly Hh reporter signal, replicate 1: 1.50e5
- firefly Hh reporter signal, replicate 2: 74266
- Renilla reference signal, replicate 1: 4858
- Renilla reference signal, replicate 2: 2795
- Outcome: inactive

CG4945 [DRSC06904]
- firefly Hh reporter signal, replicate 1: 85637
- firefly Hh reporter signal, replicate 2: 70860
- Renilla reference signal, replicate 1: 4016
- Renilla reference signal, replicate 2: 2731
- Outcome: inactive

CG12299 [DRSC02158]
- firefly Hh reporter signal, replicate 1: 46587
- firefly Hh reporter signal, replicate 2: 51349
- Renilla reference signal, replicate 1: 1523
- Renilla reference signal, replicate 2: 2141
- Outcome: inactive

CG15784 [DRSC18090]
- firefly Hh reporter signal, replicate 1: 52691
- firefly Hh reporter signal, replicate 2: 1.64e5
- Renilla reference signal, replicate 1: 1228
- Renilla reference signal, replicate 2: 6995
- Outcome: inactive

Usp16-45 [DRSC18352]
- firefly Hh reporter signal, replicate 1: 1.06e5
- firefly Hh reporter signal, replicate 2: 73928
- Renilla reference signal, replicate 1: 2306
- Renilla reference signal, replicate 2: 1610
- Outcome: inactive

CG14839 [DRSC14963]
- firefly Hh reporter signal, replicate 1: 1.21e5
- firefly Hh reporter signal, replicate 2: 1.42e5
- Renilla reference signal, replicate 1: 3920
- Renilla reference signal, replicate 2: 4502
- Outcome: inactive

CG43108 [DRSC05654]
- firefly Hh reporter signal, replicate 1: 1.75e5
- firefly Hh reporter signal, replicate 2: 2.77e5
- Renilla reference signal, replicate 1: 5012
- Renilla reference signal, replicate 2: 12157
- Outcome: inactive

if [DRSC20341]
- firefly Hh reporter signal, replicate 1: 83675
- firefly Hh reporter signal, replicate 2: 3.04e5
- Renilla reference signal, replicate 1: 3149
- Renilla reference signal, replicate 2: 11408
- Outcome: inactive

CG14500 [DRSC06471]
- firefly Hh reporter signal, replicate 1: 76059
- firefly Hh reporter signal, replicate 2: 59364
- Renilla reference signal, replicate 1: 1653
- Renilla reference signal, replicate 2: 4294
- Outcome: inactive

p130CAS [DRSC07862]
- firefly Hh reporter signal, replicate 1: 1.85e5
- firefly Hh reporter signal, replicate 2: 3.11e5
- Renilla reference signal, replicate 1: 5816
- Renilla reference signal, replicate 2: 13094
- Outcome: inactive

p130CAS [DRSC08257]
- firefly Hh reporter signal, replicate 1: 1.15e5
- firefly Hh reporter signal, replicate 2: 93069
- Renilla reference signal, replicate 1: 5288
- Renilla reference signal, replicate 2: 3989
- Outcome: inactive

CG1986 [DRSC18197]
- firefly Hh reporter signal, replicate 1: 61627
- firefly Hh reporter signal, replicate 2: 1.20e5
- Renilla reference signal, replicate 1: 2071
- Renilla reference signal, replicate 2: 6240
- Outcome: inactive

pea [DRSC07120]
- firefly Hh reporter signal, replicate 1: 46096
- firefly Hh reporter signal, replicate 2: 31041
- Renilla reference signal, replicate 1: 3243
- Renilla reference signal, replicate 2: 2027
- Outcome: inactive

Sik2 [DRSC18522]
- firefly Hh reporter signal, replicate 1: 1.24e5
- firefly Hh reporter signal, replicate 2: 2.43e5
- Renilla reference signal, replicate 1: 5063
- Renilla reference signal, replicate 2: 9409
- Outcome: inactive
